Source: patent publication US20040014131A1 (Pfizer Inc., priority 2002, published 2004)

Test: general procedure: Fmoc solid-phase peptide synthesis; FMOC-PAL-PEG-PS resin; HBTU

Substance | crude mass (whole synthesis) | crude yield (whole synthesis, scale of the general procedure 0.25 mmol) | conjugation yield (conjugation step)
5-carboxyfluorescein-Gly-Gly-dPhe-Leu-Arg-Arg-Val-Cys(H)-βAla-NH2 | 50 mg | 54% | –
5-carboxyfluorescein-Gly-Gly-dPhe-Leu-Arg-Arg-Val-Cys(5-(and 6)tetramethylrhodamine)-βAla-NH2 | – | – | 8%
